# Laboratory results taken from patent US20240115720A1, “ANTIBODY-PYRROLOBENZODIAZEPINE DERIVATIVE CONJUGATE” (MEMORIAL SLOAN KETTERING CANCER CENTER, priority 2021, published 2024).
# Chains of the proteins cited; added tags and fusions are not shown. Lines headed by an entry give the natural chain unless they say otherwise; changes in a name come on top.
# UniProt Q9NYJ7: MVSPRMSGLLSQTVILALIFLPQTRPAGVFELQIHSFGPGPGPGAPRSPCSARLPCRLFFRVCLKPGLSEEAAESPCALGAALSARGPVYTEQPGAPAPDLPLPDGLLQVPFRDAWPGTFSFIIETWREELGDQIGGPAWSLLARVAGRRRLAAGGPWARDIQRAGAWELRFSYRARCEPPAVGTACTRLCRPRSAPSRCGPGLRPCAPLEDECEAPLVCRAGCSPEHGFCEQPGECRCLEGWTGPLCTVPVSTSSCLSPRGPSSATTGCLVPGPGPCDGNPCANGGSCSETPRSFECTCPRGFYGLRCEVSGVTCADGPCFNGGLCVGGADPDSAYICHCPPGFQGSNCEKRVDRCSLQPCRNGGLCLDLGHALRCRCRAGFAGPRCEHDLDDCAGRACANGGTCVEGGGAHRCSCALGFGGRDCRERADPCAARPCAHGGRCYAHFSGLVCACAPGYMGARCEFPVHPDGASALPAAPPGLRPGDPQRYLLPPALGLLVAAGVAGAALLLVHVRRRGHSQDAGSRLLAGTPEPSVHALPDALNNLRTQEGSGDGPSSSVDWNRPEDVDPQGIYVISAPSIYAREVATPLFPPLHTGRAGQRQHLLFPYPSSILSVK
# These are yes or no findings as the source states them, for the method shown. Some entries that bind do so weakly or less than the wild type.
# B1: 2-C8-A (antibody, V domains shown)
# VH: EVQLVESGGGLVQPGGSQRLSCAASGFTFSSYWMNWVRQAPGKGLEWVANIKEDGSEKYYVDSVKGRFTISRDNAKNSLYLQMNSLRAEDTAVYYCARDPGWAPFDYWGQGTLVTVSS
# VL: DIQMSQSPSSLSASVGDRVTITCRASQGISNYLAWFQQKPGKAPKSLIYAASSLQSGVPSKFSGSGSGTDFTLAISSLQPEDFATYYCQQYNSFPYTFGQGTTLEIK
# Molecular target: Histidine-tagged DLL3 antigen (DLL3-His) (Homo sapiens (Human)) (UniProt Q9NYJ7)
# Assay: Carterra array SPR epitope binning, mAb immobilized, DLL3-His injected
binder,measurement,value
B1,binding,binds
